Paper doi:10.1101/2020.01.03.892703

T1: biotin-tagged XPF (mouse (endogenous knock-in in MEFs)) (UniProt Q9QZD4)
T1 sequence (chain, biotin on the 15 aa tag (by the BirA ligase in vivo)): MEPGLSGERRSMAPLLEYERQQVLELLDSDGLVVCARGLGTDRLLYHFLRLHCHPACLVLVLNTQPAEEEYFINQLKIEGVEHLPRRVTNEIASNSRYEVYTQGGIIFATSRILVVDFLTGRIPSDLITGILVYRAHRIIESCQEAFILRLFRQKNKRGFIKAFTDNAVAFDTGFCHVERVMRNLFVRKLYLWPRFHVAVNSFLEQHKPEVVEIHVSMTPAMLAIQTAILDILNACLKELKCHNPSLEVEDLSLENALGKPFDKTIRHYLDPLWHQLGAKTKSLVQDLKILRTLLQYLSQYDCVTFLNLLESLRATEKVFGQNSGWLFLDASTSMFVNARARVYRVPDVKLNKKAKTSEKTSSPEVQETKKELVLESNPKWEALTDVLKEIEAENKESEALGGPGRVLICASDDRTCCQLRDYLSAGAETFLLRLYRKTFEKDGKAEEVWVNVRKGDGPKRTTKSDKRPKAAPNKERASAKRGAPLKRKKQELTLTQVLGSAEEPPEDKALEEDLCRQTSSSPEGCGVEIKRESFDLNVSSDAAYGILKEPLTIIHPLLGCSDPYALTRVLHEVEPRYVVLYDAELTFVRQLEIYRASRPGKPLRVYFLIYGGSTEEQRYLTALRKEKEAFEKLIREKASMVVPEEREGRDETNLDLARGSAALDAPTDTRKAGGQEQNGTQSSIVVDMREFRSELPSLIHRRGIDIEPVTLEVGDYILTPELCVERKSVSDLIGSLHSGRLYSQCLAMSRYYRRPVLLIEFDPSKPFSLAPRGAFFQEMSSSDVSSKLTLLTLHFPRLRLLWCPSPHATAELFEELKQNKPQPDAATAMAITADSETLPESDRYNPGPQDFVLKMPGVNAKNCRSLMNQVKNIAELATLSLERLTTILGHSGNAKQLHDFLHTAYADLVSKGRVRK

B1: WDR75 (protein, UniProt Q3U821 1-830)
chain: MVEEGVRVVRCGGSRLNFRRAVFSVDSKYIFCVSGDFVKVYSTTTEECVHILHGHTDLVSGILVNPSNHLQLYSCSFDGTIKLWDYVDGILIKTFTIGPKLHAFFIPLHAEDSVFLTISKEEPDIFQLVSVKLPKSTSQDVEARQLTFVLDYINRSPKCIAFGNEGEYVAAVRDFYLSVYFFKKKKTCNFTLPSTKNKKNAKNKFTCVACHPKEDCIASGHMDGKIRLWRNFHSDQKYTYTCLHWHHDMVMDLAFTVTGTSLLSGGRECVLVEWRDGSEKNKEFLPRLGSSIEHISVSPAGDLFCTSHSDNKITVIHRNLDASAVIQGLVKDRSISTGLMVDPRTKALVLNGKPGHLQFYSLQGDKQLYNLDIIQQEYINDEGLTQTELTKAAFGCSGTWLATVEQRQENENELELQMKLWNYSKKTQGFVLNTKIAMPHDDHITALCFNNAESYEKPILVTASRDGHFKVWILTDDSDIYKKAIAWTCDFVGSYHKYQATNCCFSEDGSLLAVSFEEIVTIWDSQTWELKCTFCQRAGKIRHLCFGRLTCSKYLLGTTDNGILCCWNLLSCSIQWSAKLNVRVMEPDPYSDHVAAVAQSSAGSDLFVFKPSEPRPLYIQKNVSREEVQWGVFVPRDVPESFTSETHQWLNRSQFYFLTKSQSLLTFSTKSPEEKLTPTSKQLLAEESLPTTPFSFILGKHRQQQGAKLTETSENELVQLPLTENIPAITELLHTPAHVLPSASFLCSLFVNSLLLSKETKSAEEVPDDVDMEGNKESDDSDEEYDLTEKDKETNNNTDLGEDAIHQLSKSEEKELRKFRKVDYSWLTAL
B2: XRN2 (protein, UniProt Q9DBR1 1-951)
chain: MGVPAFFRWLSRKYPSIIVNCVEEKPKECNGVKIPVDASKPNPNDVEFDNLYLDMNGIIHPCTHPEDKPAPKNEDEMMVAIFEYIDRLFNIVRPRRLLYMAIDGVAPRAKMNQQRSRRFRASKEGMEAAVEKQRVREEILAKGGFLPPEEIKERFDSNCITPGTEFMDNLAKCLRYYIADRLNNDPGWKNLTVILSDASAPGEGEHKIMDYIRRQRAQPNHDPNTHHCLCGADADLIMLGLATHEPNFTIIREEFKPNKPKPCALCNQFGHEVKDCEGLPREKKGKHDELADSLPCAEGEFIFLRLNVLREYLERELTMASLPFPFDVERSIDDWVFMCFFVGNDFLPHLPSLEIREGAIDRLVNIYKNVVHKTGGYLTESGYVNLQRVQMIMLAVGEVEDSIFKKRKDDEDSFRRRQKEKRKRMKRDQPAFTPSGILTPHALGSRNSPGCQVASNPRQAAYEMRMQRNSSPSISPNTSFASDGSPSPLGGIKRKAEDSDSEPEPEDNVRLWEAGWKQRYYKNKFDVDAADEKFRRKVVQSYVEGLCWVLRYYYQGCASWKWYYPFHYAPFASDFEGIADMSSEFEKGTKPFKPLEQLMGVFPAASGNFLPPTWRKLMSDPDSSIIDFYPEDFAIDLNGKKYAWQGVALLPFVDERRLRAALEEVYPDLTPEENRRNSLGGDVLFVGKLHPLRDFILELYQTGSTEPVDVPPELCHGIQGTFSLDEEAILPDQTVCSPVPMLRDLTQNTAVSINFKDPQFAEDYVFKAAMLPGARKPATVLKPGDWEKSSNGRQWKPQLGFNRDRRPVHLDQAAFRTLGHVTPRGSGTSVYTNTALPPANYQGNNYRPLLRGQAQIPKLMSNMRPQDSWRGPPPLFQQHRFERSVGAEPLLPWNRMIQNQNAAFQPNQYQMLGGPGGYPPRRDDHRGGRQGYPREGRKYPLPPPSGRYSWN

Target: T1, biotin-tagged XPF (mouse (endogenous knock-in in MEFs))
Test: affinity purification with mass spectrometry

Row | Binder | binding
1 | B1 | binds
2 | B2 | binds

No constants are given. Whether binding was seen depends on the method and setting. In cells and extracts the contact can be indirect. A yes stands for co-enrichment or nearness to the bait. Other partners may have been found. Tags and fused reporters may be left off the sequences shown.
